This note sets out measurements from patent US20210355235A1, “Compositions and Methods For Treating Cancer with Anti-Renalase antibodies and Anti-PD1 antibodies” (YALE UNIVERSITY, priority 2017, published 2021).

Protein sequences, listed by entry. Tags and fused reporters are not part of them. Lines headed by an entry give the natural chain unless they say otherwise; changes in a name come on top.
UniProt Q5VYX0: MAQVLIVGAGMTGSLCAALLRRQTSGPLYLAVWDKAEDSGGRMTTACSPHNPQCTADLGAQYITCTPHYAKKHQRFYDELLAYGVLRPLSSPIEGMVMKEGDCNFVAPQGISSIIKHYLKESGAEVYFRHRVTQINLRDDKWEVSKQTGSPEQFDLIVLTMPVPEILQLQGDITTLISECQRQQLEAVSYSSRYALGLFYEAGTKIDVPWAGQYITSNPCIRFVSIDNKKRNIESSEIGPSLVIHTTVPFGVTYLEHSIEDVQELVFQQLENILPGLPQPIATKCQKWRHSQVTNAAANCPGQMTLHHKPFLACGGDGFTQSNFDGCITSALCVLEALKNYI

Results are given in words; binding and its absence hold for the method and conditions named. Some results given as binding are weak or reduced against the parent protein; the word gives no strength.

The assay concerns the target human renalase-1 (Homo sapiens) (UniProt Q5VYX0). In words: SPR, Biacore T100. In general terms: In SPR one partner is held on a chip, and binding of the other changes the refractive index at the surface.

B1: anti-renalase monoclonal antibody 1D-28-4 (antibody, V domains shown)
VH: QSVEESGGRLVTPGTPLTLTCTVSGFSLSSFAVGWVRQAPGKGLEYIGIISSVGITRYASWAAGRFTISKTSTTVDLKITSPTTEDTATYFCARYGYSGDVNRLDLWGQGTLVTVSS
VL: AQVLTQTASPVSAAVGGTVTINCQASQSVYDNNNLAWYQQKPGQPPKQLIYGASTLASGVSSRFKGSGSGTQFTLTISGVQCDDAATYYCLGEFSCSSADCFAFGGGTEVVVKG
Consider B1, for which the binding result is listed as “binds”.
